Screen size: about 2,000 compounds; about 190 (9.5%) were called active. Inconclusive results (about 14%) are left out.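 The calls were made as follows: active = fitted activation curve crossing 40% at a concentration no higher than the sample's top valid tested dose; inconclusive = flat fitted curve at 30% to 70% activation, or poor curve fit; inactive = signal decrease, flat curve within 30%, or the rest.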 The list lacks most of the strong results.
Assay: HSF-1 reporter activators over prolonged exposure, confirmation, cell-based, mouse, luciferase, cherry-pick, dose (AID 602296);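 also: test compounds applied by themselves with no MG132 co-treatment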
Conditions: NIH3T3-HGL HSF-1 response element luciferase, 48 h; at 26 µM (top of the series) unless noted

activation, inactive:
COc1cccc(CNc2nc3ccccc3n2C(C)C)c1O -2.24%, Clc1ccccc1CN(Cc1ccco1)Cc1nnnn1C1CCCC1 -13.9%, Cc1cccc(N(C(=O)c2ccc(CN3CCOCC3)o2)C(C(=O)NC(C)(C)C)c2ccc(F)cc2)c1 (configuration not stated) -14.6%, O=C(COC(=O)C1CCN(S(=O)(=O)c2cccc3cccnc23)CC1)c1ccc([N+](=O)[O-])cc1 -12.1%, c1ccc(Nc2c(-c3ccco3)nc3ccccn23)cc1 10.6%, N#C/C(=C\c1cn(Cc2ccccc2)c2ccccc12)C(=O)NCc1ccco1 -9.67%, CCCCCn1c(N2CCN(c3cccc(Cl)c3)CC2)nc2c1c(=O)[nH]c(=O)n2C -78.6%, COc1ccc(C(=O)NC2CCN(C(=S)NCc3ccco3)CC2)cc1 -5.5%, COCC(C)NC(=O)/C(=C/c1ccccc1)c1ccccc1 (configuration not stated) -20.2%, Cc1cc(C)cc(OCC(=O)O/N=C(\N)Cc2ccc([N+](=O)[O-])cc2)c1 2.64%, Nc1cc[n+](CC(=O)Nc2ccccc2)cc1 -6.73%, O=C(Nc1cccc(Cl)c1)N(Cc1nc2ccccc2c(=O)[nH]1)C1CCCC1 23.3%, O=C(/C=C/c1cccc([N+](=O)[O-])c1)NC(=S)Nc1ccc(CN2CCOCC2)cc1 -17.4%, O=C(c1ccc(Cl)c(S(=O)(=O)NCc2ccco2)c1)N1CCN(c2ccccc2F)CC1 0.244%, CC(C)(C)NC(=O)C(c1ccncc1)N(C(=O)Cn1nnc(-c2cccs2)n1)C1CCCCC1 (configuration not stated) -8.31%, CC(=O)Nc1ccc(Nc2nc3c(S(=O)(=O)c4ccc(C)c(C)c4)nnn3c3ccccc23)cc1 6.09%, Cc1cc2occ(CC(=O)NCc3cccs3)c2cc1C(C)C -46.7%, COc1ccc(NC(=O)c2nn(C)c(=O)c3ccccc23)cc1S(=O)(=O)Nc1ccccc1Cl -50.5%, COc1ccc(/C=C2\SC(=S)N(CCC(=O)Nc3cccc(O)c3)C2=O)cc1 -2.93%, CC1CCCN(C(=O)c2ccccc2OC2CCN(S(C)(=O)=O)CC2)C1 (configuration not stated) 0.657%, O=C1C=C(Nc2ccccc2C(=O)O)c2ccccc2C1=O -48%, CCc1ccc(CN(C)C(=O)CCc2nc3ccccc3n(-c3ccc(OC)cc3)c2=O)cc1 -16.4%, COc1ccc(NC(=O)COc2cccc3c2CCN(Cc2cccnc2)C3=O)c(OC)c1 5.52%, CC1(C)CC(CCN)(Cc2ccccc2Cl)CCO1 (configuration not stated) -7.19%, CCOC(=O)c1cnc2ccc(OC)cc2c1Nc1ccc(N2CCN(C)CC2)cc1 -68%, Cc1cc(C)c(S(=O)(=O)N2CCCC(C(=O)NCCC3=CCCCC3)C2)c(C)c1 (configuration not stated) -25.8%, O=C(O)CCc1ccc(-c2ccc(Br)cc2)n1Cc1ccco1 -6.11% [at 12 µM], O=C(CN(C(=O)c1ccccc1Cl)C1CCCCC1)Nc1ccc(Cl)c([N+](=O)[O-])c1 -58.9% [at 12 µM], CCc1ccc(NC(=O)COC(=O)/C=C/c2c(C)nn(C3CCS(=O)(=O)C3)c2Cl)cc1 (configuration not stated) -19.6%, Cc1ccc(C(C(=O)NC2CCCCC2)N(C(=O)Cc2c[nH]c3ccccc23)c2ccccc2)o1 (configuration not stated) -45.7%, COCCn1c(SCC(=O)NC2CCCCC2)nc2c(c1=O)SCC2 8.51%, Cc1ccc(CC2SC(=Nc3ccccc3)N(c3ccccc3)C2=O)cc1 (configuration not stated) -38.1%, CCCCSc1nc(C)cc(SCC(=O)N/N=C/c2cccc(OC)c2O)n1 -25.2%, Cc1nnc(SCC2=C(C(=O)O)N3C(=O)C(NC(=O)c4cccc(F)c4F)C3SC2)s1 (configuration not stated) 16.7%, CCCCNC1C(CC)C(CCC)C(C#N)(C#N)C1(C#N)C#N (configuration not stated) -20.6%, O=C(OC1CCOC1=O)c1cc(Cl)ccc1[N+](=O)[O-] (configuration not stated) 4.06%, COC(=O)c1cc(S(=O)(=O)N2CCN(c3ccc([N+](=O)[O-])cc3)CC2)c[nH]1 -13.3%, CCCCN(C(=O)/C=C/c1ccco1)c1c(N)n(CCC)c(=O)[nH]c1=O -5.28%, Cc1ccc(-c2nc3ccccc3[nH]2)cc1NC(=O)c1ccc2c(c1)OCO2 3.91%, CCOC(=O)C(=Cc1c[nH]c2ccc(S(=O)(=O)N(C)C)cc12)C(=O)OCC -8.52% [at 12 µM], CC(C)CC(/C(O)=C(\C#N)c1nc2ccccc2[nH]1)N1C(=O)c2ccccc2C1=O (configuration not stated) -39.8%, COc1ccc(-c2c(C)nn3c(NC4CCCC4)cc(C)nc23)cc1OC -25.6%, CCOc1ccccc1CN1CCNC(=O)C1CC(=O)NCc1nccn1CC (configuration not stated) 4.52%, CCOC(=O)c1c(C)[nH]c(C)c1S(=O)(=O)N1CCN(c2cccc(C)c2)C(C)C1 (configuration not stated) -26.1%, COc1ccc(C)cc1NC(=O)C/C(C)=N/NC(=O)Cc1cccc2ccccc12 -16.4%, CC[C@@H]1[C@H]2CCCC(=O)N3CC[C@@H](C[C@@H]1Nc1ccccc1)[C@@H]23 6.78%, Cc1cc(C)c(S(=O)(=O)Nc2cccc(/C=C/C(=O)O)c2)c(C)c1 9.61%, O=C(COc1ccccc1)NC(=S)Nc1cccc2cc(O)ccc12 -35.6%, O=C(c1ccc(F)cc1F)C1CCN(c2ccc([N+](=O)[O-])cn2)CC1 -5.54%, CCOC(=O)COc1ccc(/C=C/[N+](=O)[O-])c(OCC(=O)OCC)c1 -102%, Cc1nn(C)c(Oc2ccccc2)c1CCNS(=O)(=O)c1ccc(Cl)cc1 -52.3%, CC(C)CCNC1c2ccccc2C(=O)N1Cc1ccccc1 (configuration not stated) -1.01%, O=C(NC1C2CC3CC(C2)CC1C3)C1CC1 (configuration not stated) -5.94%, CCOc1ccc(-n2c(=S)sc3c(=O)[nH]c(SCC(=O)NC(C)CC)nc32)cc1 (configuration not stated) -4.48%, CCCCn1c(O)c(/C=C2\C=NN=C2c2ccccc2)sc1=S -17.1%, COCCn1c(C)cc(C(=O)COC(=O)c2ccc(-n3nc(C)cc3C)cc2)c1C -6.84%, COc1ccccc1NC(=O)CN1CCN(CC(=O)Nc2ccccc2Cl)CC1 -13%, COc1ccc(C2N(C(=O)CN3CCCC3)CCCN2S(=O)(=O)c2ccccc2)cc1 (configuration not stated) 8.31%, Cc1ccc(NC(=O)c2sc(N)nc2-c2ccc([N+](=O)[O-])cc2)c(C)c1 -8.25%, Cc1[nH]n(-c2ccccc2)c(=O)c1C(C[N+](=O)[O-])c1ccc(F)cc1 (configuration not stated) -47.7%, COc1ccc(N2CCN(C(c3cccs3)C(C)NS(=O)(=O)c3ccccc3)CC2)cc1 (configuration not stated) -37.6%, CC(=O)Nc1ccc(C2=NN(Cc3nnc(-c4ccccc4)o3)C(=O)SC2)cc1 13%, O=C/C=C/c1c(-c2ccccc2)cc2oc3ccccc3cc1-2 -78.8%, Cc1cc(F)ccc1NCc1cc2c(cc1[N+](=O)[O-])OCO2 1.55%, COc1cc2[nH]c(=S)nc(NCc3cccs3)c2cc1OC -18.2%, COc1cc(/C=C/C(=O)N2CCOCC2)ccc1OCc1ccccc1 -6.72%, Nc1nnnn1CC(=O)N/N=C/c1ccccn1 5.51%, COc1cc(/C=C(\C#N)C(=O)NC2CCCCC2C)ccc1OS(=O)(=O)c1ccc(C)cc1 (configuration not stated) -107%, CCOc1ccc(CNC(=O)c2cccc(NC(=O)C3=C(C)OCCS3)c2)cc1 -15.6%, Cc1cc(C)n(-c2nc3ccccc3nc2N2CCN(C(=O)c3ccc(F)cc3)CC2)n1 -13.6%, O=C(CCl)Nc1cccc(Oc2ccccc2)c1 -97.6%, Cc1ccc(C2C(C#N)=C(N)SC(N)=C2C#N)c(C)c1 -31%, CC(=O)Nc1ccccc1OC(C)C(=O)N1CC(C)CC(C)C1 (configuration not stated) 5.82%, NS(=O)(=O)c1ccc(CCNC(=O)c2ccc([N+](=O)[O-])s2)cc1 -4.33%, COc1ccc(N2C(=O)CC(Sc3nnnn3-c3ccc(F)cc3)C2=O)cc1 (configuration not stated) -104%, COCCn1c(N)c(N(Cc2ccccc2)C(=O)c2ccc(C#N)cc2)c(=O)[nH]c1=O -1.83%, Nc1nc2ccccc2n1/N=C/c1ccc([N+](=O)[O-])s1 -35.6%, Cc1c(CNCCc2ccccc2)c(C(=O)O)c(C)n1-c1ccccc1 5.58%, CCC(NC(=O)/C(=C\c1ccc2c(c1)OCO2)NC(C)=O)C(=O)O (configuration not stated) -1.08%, Cc1cn(Cc2ccccc2Cn2cc(C)c(=O)[nH]c2=O)c(=O)[nH]c1=O -1.32%, COc1cc2nc(NC(=O)c3ccc(Cl)cc3)sc(=O)c2cc1OC -12.1%, CC(=O)Oc1ccc(-c2cccc(C(=O)OCC(=O)N(C)c3ccccc3)c2)cc1 -9.99%, CCOC(=O)C(C(=O)OCC)C(Nc1ccc(Br)cc1)c1ccccc1 (configuration not stated) -61%, Cn1c(/C=C/c2ccc([N+](=O)[O-])o2)nc2ccccc2c1=O -100%, CC#CC[N+](C)(C)CCCCCCCCCCCC -65%, CC(C)(C)c1ccc(Cn2c(=N)n(CC(O)c3ccco3)c3ccccc32)cc1 (configuration not stated) -47.9%, CCOc1ccc(/C=N/NC(=O)C(C)N(c2ccc(OC)cc2)S(C)(=O)=O)cc1 (configuration not stated) 8.66%
